Measurements taken from publication PMC5181583.
No constants are given. Whether binding was seen depends on the method and setting. A result given as binding can be weak or reduced; the word gives no strength. Where a sequence is shown, tags or fusion partners need not be part of it. For some assays here: Binding seen in cells or lysates may run through a third protein.

biological target: T1, OsNF-YB1-GFP (rice (Oryza sativa)) (UniProt Q6Z348); experiment: co-IP; tobacco leaves co-transformed with OsNF-YB1-GFP and OsNF-YC11-mCherry or OsNF-YC12-mCherry; lysate in 50 mM Tris-HCl pH 7.5, 1 mM EDTA, 150 mM NaCl, 10% glycerol, 1% NP-40; IP with anti-GFP on Dynabeads Protein G, blot with anti-GFP and anti-mCherry
T1 sequence: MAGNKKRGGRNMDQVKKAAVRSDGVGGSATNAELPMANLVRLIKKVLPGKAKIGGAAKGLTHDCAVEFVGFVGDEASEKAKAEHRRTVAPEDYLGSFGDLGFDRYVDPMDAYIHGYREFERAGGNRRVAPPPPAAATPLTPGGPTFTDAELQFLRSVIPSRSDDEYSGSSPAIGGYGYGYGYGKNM

Row | binding | Substance
1 | binds | OsNF-YC11-mCherry (rice (Oryza sativa))
2 | binds | OsNF-YC12-mCherry (rice (Oryza sativa))

biological target: T2, OsNF-YB1 fused to the GAL4 binding domain (pGBKT7 bait) (rice (Oryza sativa)) (UniProt Q6Z348); experiment: two-hybrid; yeast AH109; OsNF-YB1 in pGBKT7 (BD) as bait, NF-YCs or ERFs in pGADT7 (AD) as prey; growth on SD/-Leu/-Trp/-His/-Ade
T2 sequence: T1 sequence

Row | binding | Substance
3 | binds | OsNF-YC9 in pGADT7 prey plasmid (rice (Oryza sativa))
4 | binds | OsNF-YC8 in pGADT7 prey plasmid (rice (Oryza sativa))
5 | no binding | OsERF#072 fused to the activation domain (pGADT7 prey) (rice (Oryza sativa))
6 | binds | OsERF#115 fused to the activation domain (pGADT7 prey) (rice (Oryza sativa))
7 | binds | OsNF-YC11 in pGADT7 prey plasmid (rice (Oryza sativa))
8 | binds | OsNF-YC12 in pGADT7 prey plasmid (rice (Oryza sativa))
9 | no binding | OsERF#074 fused to the activation domain (pGADT7 prey) (rice (Oryza sativa))
10 | no binding | OsERF#114 fused to the activation domain (pGADT7 prey) (rice (Oryza sativa))
11 | binds | OsNF-YC10 in pGADT7 prey plasmid (rice (Oryza sativa))
